At least one compound was matched to its structure with a doubt left.
How the values were obtained:
[1] = test system: SARS-CoV-2 replication centers; assay: Confocal immunofluorescence of SARS-CoV-2 N and dsRNA replication centers in Calu-3 cells; type: cell-based; conditions: Calu-3, pre-treated, MOI 3, fixed at 24 h.p.i.
[2] = test system: SARS-CoV-2 genomic RNA, subgenomic N RNA and NSP14 RNA; type: cell-based; conditions: Calu-3, 4 and 10 hpi, 1 µM

CCC(CC)COC(=O)[C@H](C)N[P@](=O)(OC[C@H]1O[C@@](C#N)(c2ccc3c(N)ncnn23)[C@H](O)[C@@H]1O)Oc1ccccc1 [Remdesivir]
distribution of SARS-CoV-2 N and dsRNA (replication center formation) [1]: distribution of N and dsRNA similar to the DMSO control | RNA synthesis at earlier time points [2]: inhibited RNA synthesis at earlier time points as well

Reference: patent US20230293521A1, “METHODS FOR SCREENING NOVEL CORONAVIRUS ANTIVIRALS AND METHODS OF USING ANTIVIRALS FOR THE TREATMENT OF CORONAVIRUS INFECTIONS” (priority 2020, published 2023)
